The source of these data is the supplement of paper PMC12819154, “High-throughput peptide-centric local stability assay extends protein–ligand identification to membrane proteins, tissues and bacteria” (Nature Structural & Molecular Biology, 2025).

Sequences of proteins named here, by UniProt entry; tags and fusion partners are left off. A change or cut given only in a name is not applied to a line headed by its entry.
UniProt P40645: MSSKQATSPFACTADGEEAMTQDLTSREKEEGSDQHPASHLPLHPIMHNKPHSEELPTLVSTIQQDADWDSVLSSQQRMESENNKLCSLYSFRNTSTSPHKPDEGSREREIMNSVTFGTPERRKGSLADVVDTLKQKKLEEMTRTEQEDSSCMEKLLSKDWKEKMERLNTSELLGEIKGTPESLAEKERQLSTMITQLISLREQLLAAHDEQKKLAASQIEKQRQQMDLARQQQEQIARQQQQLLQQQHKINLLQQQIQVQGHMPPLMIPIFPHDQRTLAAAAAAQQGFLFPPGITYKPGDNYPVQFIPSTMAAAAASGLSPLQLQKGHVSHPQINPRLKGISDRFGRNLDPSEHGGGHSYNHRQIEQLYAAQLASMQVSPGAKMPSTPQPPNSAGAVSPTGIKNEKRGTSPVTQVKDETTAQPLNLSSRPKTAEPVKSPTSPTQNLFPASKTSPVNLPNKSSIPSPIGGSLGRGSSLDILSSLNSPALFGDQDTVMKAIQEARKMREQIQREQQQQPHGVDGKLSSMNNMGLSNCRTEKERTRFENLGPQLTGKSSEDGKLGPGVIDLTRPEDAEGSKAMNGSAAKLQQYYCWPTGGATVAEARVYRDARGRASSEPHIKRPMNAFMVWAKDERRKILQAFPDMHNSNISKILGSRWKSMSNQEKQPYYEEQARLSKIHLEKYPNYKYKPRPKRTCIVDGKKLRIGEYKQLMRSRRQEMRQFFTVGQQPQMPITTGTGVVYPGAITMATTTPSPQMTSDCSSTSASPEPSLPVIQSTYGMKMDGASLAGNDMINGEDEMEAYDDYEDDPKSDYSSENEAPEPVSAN
UniProt P47199: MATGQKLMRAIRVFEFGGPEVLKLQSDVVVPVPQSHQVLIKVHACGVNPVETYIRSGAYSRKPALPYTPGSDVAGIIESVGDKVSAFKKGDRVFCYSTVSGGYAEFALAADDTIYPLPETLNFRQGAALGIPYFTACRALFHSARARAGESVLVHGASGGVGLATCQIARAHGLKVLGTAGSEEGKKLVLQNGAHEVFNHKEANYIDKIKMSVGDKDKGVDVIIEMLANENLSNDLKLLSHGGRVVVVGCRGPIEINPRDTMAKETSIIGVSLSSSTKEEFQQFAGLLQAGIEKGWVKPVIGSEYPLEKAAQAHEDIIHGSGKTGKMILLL
UniProt P53762, whole entry: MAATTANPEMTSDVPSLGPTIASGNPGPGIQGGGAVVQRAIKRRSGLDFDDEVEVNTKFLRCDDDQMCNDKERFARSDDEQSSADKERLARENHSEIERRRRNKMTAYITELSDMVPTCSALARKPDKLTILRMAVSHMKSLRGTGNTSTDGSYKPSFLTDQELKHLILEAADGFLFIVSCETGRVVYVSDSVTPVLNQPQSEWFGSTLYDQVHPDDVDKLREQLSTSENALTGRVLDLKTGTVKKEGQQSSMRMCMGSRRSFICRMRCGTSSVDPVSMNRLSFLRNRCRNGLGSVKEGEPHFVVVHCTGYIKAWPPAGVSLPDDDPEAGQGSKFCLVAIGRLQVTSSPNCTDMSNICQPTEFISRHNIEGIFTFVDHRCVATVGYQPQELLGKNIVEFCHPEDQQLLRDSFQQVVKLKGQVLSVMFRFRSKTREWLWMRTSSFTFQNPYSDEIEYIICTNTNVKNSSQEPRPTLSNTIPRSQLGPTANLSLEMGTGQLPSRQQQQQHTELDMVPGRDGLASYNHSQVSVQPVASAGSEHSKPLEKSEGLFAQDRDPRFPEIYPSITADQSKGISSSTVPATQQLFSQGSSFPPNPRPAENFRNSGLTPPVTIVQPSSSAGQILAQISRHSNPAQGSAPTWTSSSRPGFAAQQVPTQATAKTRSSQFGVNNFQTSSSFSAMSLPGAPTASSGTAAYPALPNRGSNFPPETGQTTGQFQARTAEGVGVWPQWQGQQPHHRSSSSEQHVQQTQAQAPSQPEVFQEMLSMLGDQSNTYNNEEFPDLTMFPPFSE
UniProt P52825: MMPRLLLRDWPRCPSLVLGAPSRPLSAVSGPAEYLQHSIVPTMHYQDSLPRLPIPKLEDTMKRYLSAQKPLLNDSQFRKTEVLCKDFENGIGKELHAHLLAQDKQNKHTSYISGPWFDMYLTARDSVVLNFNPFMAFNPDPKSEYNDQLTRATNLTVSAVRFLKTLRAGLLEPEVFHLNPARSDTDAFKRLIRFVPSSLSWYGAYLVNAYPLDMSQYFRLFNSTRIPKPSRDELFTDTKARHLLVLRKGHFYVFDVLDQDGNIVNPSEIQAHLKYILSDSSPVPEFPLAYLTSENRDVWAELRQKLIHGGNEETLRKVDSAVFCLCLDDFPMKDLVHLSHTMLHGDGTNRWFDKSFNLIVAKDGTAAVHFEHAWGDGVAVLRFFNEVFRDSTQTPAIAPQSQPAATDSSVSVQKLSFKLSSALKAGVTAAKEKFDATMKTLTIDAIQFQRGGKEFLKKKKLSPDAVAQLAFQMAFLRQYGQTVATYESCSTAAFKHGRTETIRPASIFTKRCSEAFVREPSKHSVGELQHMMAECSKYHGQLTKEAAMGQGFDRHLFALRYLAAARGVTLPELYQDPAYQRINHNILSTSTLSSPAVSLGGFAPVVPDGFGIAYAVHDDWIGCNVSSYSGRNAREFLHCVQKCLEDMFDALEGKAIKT
UniProt P45591, whole entry: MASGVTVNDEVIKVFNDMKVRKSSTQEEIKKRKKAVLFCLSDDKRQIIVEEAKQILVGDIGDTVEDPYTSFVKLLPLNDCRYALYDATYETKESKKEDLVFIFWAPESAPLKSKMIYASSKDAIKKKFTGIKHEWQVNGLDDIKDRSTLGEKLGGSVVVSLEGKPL
UniProt P40936: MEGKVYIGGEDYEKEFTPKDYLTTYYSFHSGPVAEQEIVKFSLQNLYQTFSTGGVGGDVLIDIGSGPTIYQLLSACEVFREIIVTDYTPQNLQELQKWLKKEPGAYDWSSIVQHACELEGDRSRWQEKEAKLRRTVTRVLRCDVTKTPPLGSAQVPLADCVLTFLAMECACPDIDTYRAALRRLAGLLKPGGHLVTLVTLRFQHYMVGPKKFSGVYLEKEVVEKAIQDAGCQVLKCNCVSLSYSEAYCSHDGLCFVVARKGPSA
UniProt P47739: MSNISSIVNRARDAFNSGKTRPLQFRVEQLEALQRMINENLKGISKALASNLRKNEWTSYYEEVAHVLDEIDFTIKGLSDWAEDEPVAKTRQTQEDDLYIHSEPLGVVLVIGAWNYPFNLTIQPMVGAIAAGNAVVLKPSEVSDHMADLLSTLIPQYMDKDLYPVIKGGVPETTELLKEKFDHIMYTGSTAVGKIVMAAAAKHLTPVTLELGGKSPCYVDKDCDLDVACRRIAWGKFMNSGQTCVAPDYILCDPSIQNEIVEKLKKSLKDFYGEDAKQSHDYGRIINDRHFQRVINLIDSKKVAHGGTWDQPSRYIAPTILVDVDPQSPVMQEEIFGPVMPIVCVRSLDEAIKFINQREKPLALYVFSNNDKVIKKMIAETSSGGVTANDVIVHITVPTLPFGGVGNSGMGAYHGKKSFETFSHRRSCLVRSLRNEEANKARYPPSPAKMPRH
UniProt P39447, whole entry: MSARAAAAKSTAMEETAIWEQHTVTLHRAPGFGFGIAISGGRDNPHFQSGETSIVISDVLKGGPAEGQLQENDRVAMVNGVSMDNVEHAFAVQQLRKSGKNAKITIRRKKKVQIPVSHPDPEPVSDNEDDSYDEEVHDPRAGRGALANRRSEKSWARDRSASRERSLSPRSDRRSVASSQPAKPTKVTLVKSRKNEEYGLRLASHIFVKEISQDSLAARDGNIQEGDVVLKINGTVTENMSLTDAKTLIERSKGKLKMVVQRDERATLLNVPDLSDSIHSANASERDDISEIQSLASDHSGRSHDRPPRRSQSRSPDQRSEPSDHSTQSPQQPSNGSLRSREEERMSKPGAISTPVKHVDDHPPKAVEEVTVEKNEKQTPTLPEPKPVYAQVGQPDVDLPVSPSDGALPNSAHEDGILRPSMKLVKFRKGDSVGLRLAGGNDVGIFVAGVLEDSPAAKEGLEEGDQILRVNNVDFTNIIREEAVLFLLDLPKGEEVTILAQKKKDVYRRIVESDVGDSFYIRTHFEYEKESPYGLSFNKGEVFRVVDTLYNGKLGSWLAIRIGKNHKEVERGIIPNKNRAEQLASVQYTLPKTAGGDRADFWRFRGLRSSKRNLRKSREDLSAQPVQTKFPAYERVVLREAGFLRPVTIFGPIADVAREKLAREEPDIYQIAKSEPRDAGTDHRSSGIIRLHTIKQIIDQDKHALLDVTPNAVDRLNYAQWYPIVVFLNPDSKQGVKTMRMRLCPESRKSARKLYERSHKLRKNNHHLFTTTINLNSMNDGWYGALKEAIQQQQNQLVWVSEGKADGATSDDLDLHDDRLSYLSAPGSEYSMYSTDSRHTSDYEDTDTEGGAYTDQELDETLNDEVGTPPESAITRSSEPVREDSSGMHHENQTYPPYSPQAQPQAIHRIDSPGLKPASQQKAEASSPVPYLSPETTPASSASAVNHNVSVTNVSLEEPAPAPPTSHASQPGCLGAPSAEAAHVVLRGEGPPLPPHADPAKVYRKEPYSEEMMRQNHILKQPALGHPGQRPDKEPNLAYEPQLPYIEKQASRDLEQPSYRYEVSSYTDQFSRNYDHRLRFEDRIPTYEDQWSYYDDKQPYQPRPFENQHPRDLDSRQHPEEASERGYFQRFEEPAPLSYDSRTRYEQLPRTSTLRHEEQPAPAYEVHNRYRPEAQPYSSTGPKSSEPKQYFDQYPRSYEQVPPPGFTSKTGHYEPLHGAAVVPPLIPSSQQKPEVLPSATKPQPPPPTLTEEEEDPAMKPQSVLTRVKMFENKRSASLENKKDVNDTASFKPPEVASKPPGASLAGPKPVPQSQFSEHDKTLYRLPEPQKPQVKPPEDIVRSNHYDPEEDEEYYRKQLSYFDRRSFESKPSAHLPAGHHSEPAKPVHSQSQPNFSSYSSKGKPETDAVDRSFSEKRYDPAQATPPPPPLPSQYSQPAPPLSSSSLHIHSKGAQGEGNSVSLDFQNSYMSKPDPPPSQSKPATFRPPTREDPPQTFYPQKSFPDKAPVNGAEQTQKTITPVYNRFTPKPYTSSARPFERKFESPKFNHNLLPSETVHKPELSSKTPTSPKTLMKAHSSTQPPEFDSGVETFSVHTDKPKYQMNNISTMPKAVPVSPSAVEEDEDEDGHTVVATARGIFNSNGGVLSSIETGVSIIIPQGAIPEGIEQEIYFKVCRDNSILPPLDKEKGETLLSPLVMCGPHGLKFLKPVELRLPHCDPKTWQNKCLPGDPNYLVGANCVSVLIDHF
UniProt P53811: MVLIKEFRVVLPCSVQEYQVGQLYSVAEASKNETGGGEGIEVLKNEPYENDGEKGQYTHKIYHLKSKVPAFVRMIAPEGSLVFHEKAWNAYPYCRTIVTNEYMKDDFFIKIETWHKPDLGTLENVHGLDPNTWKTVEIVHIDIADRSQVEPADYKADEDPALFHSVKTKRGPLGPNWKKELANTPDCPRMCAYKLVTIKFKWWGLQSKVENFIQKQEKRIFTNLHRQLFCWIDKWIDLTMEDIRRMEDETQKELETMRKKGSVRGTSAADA
UniProt P46656: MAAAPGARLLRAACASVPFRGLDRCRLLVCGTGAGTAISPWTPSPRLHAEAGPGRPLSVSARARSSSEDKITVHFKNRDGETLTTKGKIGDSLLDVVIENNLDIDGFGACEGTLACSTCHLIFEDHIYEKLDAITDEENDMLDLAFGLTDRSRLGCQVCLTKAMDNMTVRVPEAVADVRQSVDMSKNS
UniProt P49070: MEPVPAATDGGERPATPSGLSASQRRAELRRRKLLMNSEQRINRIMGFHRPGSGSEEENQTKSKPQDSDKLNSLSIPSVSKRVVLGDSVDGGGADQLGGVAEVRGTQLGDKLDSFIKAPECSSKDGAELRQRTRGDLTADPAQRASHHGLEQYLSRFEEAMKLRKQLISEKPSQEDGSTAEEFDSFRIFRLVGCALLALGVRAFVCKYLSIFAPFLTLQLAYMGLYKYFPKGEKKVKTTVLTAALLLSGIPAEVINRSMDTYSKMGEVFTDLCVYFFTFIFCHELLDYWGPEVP
UniProt P52792, whole entry: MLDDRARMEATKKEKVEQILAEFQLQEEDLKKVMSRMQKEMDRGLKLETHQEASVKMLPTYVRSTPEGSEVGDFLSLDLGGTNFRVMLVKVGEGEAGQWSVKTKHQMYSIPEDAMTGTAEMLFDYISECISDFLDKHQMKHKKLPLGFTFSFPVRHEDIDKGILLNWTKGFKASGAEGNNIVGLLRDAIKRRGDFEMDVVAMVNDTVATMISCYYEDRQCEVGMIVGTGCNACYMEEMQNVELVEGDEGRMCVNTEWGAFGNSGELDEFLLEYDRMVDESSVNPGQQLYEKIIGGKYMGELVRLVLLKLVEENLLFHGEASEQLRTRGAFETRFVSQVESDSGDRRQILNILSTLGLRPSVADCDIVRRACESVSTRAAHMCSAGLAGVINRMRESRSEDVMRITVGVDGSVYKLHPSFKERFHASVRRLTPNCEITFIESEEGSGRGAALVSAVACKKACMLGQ
UniProt P48024, whole entry: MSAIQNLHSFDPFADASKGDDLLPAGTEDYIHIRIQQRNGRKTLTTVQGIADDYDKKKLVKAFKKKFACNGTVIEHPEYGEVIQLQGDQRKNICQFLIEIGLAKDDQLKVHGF

Some of the results follow. Small differences around the control level are noise.

Compound in the assay: CN[C@@H]1C[C@H]2O[C@@](C)([C@@H]1OC)n1c3ccccc3c3c4c(c5c6ccccc6n2c5c31)C(=O)NC4 [staurosporine]
Briefly: log2 fold change of tryptic peptide abundance, ligand vs vehicle (limited proteolysis) (log2 ratio); higher = more trypsin-susceptible (destabilized). The conditions noted are these: ligand concentration: 20 uM; sample: mouse liver crude lysate; replicate design: treated separately.
As for “UniProt P40645 (peptide sequence: SSIPSPIGGSLGR, peptide start residue: 462)”, the log2 fold change is -0.417.
As to “UniProt P50462 (peptide sequence: VMGGGKPWHK, peptide start residue: 133)”, the log2 fold change is 0.332.
For the target “UniProt P46467 (peptide sequence: KFTEDFGQEG, peptide start residue: 435)”, the log2 fold change is -0.128.
With “UniProt P43275 (peptide sequence: SLAAAGYDVEKNNSR, peptide start residue: 67)” the figure was -0.0975; with “UniProt P51410 (peptide sequence: VDKWWGNR, peptide start residue: 57)”, 0.298; with “UniProt P47199 (peptide sequence: LVLQNGAHEVFNHKEANYIDKIK, peptide start residue: 188)”, 0.703.
With “UniProt P53762 (peptide sequence: QQQQQHTELDMVPGR, peptide start residue: 503)” the figure was -0.285.
As for “UniProt P47753 (peptide sequence: VSDEEKVR, peptide start residue: 8)”, the log2 fold change was 0.692.
As to “UniProt P53568 (peptide sequence: VNQLKEENER, peptide start residue: 94)”, the log2 fold change is -0.299.
With “UniProt P52825 (peptide sequence: DVWAELR, peptide start residue: 297)” the figure was -0.289.
As to “UniProt P52795 (peptide sequence: AAALSLSTLASPK, peptide start residue: 276)”, the log2 fold change is -0.265.
As to “UniProt P45591 (peptide sequence: KSSTQEEIKK, peptide start residue: 22)”, the log2 fold change was 0.758.
In the case of “UniProt P40936 (peptide sequence: VLRCDVTK, peptide start residue: 139)”, the log2 fold change was -0.668.
With “UniProt P43247 (peptide sequence: VGAGDSQLK, peptide start residue: 712)” the figure was -0.355; with “UniProt P39688 (peptide sequence: KLDNGGYYITTR, peptide start residue: 214)”, 0.198; with “UniProt P50247 (peptide sequence: GISEETTTGVHNLYK, peptide start residue: 152)”, -0.242.
As for “UniProt P52293 (peptide sequence: KGVVPQLVK, peptide start residue: 292)”, the figure is -0.205.
With “UniProt P36993 (peptide sequence: ILSAENIPNLPPGGGLAGKR, peptide start residue: 341)” the figure was 0.486.
With “UniProt P47739 (peptide sequence: HLTPVTLELGGK, peptide start residue: 200)”, the log2 fold change was found to be 0.1.
Turning to “UniProt P51830 (peptide sequence: VGQSIMHGKDLEVEK, peptide start residue: 313)”, the log2 fold change came to 0.708.
With “UniProt P41233 (peptide sequence: TIILSTHHMDEADILGDR, peptide start residue: 1083)” the figure was 0.338.
As for “UniProt P39447 (peptide sequence: HALLDVTPNAVDR, peptide start residue: 703)”, the figure is 0.447; as for “UniProt P46664 (peptide sequence: GLDGWEKR, peptide start residue: 119)”, 0.283; as for “UniProt P35585 (peptide sequence: LGLNDKVLFDNTGR, peptide start residue: 212)”, -0.437.
For “UniProt P48771 (peptide sequence: QKLFQEDNGMPVHLK, peptide start residue: 32)”, the log2 fold change was -0.377.
As for “UniProt P48758 (peptide sequence: PVALVTGANK, peptide start residue: 6)”, the figure is 0.197; as for “UniProt P53811 (peptide sequence: TVEIVHIDIADR, peptide start residue: 135)”, -0.45; as for “UniProt P46425 (peptide sequence: EAAQVDMVNDGVEDLRGK, peptide start residue: 86)”, -0.339.
With “UniProt P46656 (peptide sequence: DGETLTTK, peptide start residue: 79)” the figure was -0.287.
Consider “UniProt P45376 (peptide sequence: VCALMSCAK, peptide start residue: 298)”, for which the log2 fold change amounted to 0.409.
Regarding “UniProt P49070 (peptide sequence: APECSSKDGAELR, peptide start residue: 118)”, the log2 fold change came out at 0.893.
Regarding “UniProt P50544 (peptide sequence: TQFGDKIHNFGVIQEK, peptide start residue: 368)”, the log2 fold change is -0.357.
As for “UniProt P52792 (peptide sequence: TRGAFETR, peptide start residue: 326)”, the log2 fold change is -0.451.
For the target “UniProt P47791 (peptide sequence: MVCANKEEK, peptide start residue: 443)”, the log2 fold change amounted to 0.382.
As for “UniProt P52623 (peptide sequence: RTFPEPGDHPGVLATGKR, peptide start residue: 250)”, the figure is 0.244.
As for “UniProt P52196 (peptide sequence: VDLSQPLIATCRK, peptide start residue: 238)”, the figure is 0.163.
With “UniProt P51658 (peptide sequence: KGFYPQPTPR, peptide start residue: 366)” the figure was 0.313.
In the case of “UniProt P47915 (peptide sequence: SQRYESLK, peptide start residue: 26)”, the log2 fold change was -0.24.
As for “UniProt P48024 (peptide sequence: TLTTVQGIADDYDKK, peptide start residue: 43)”, the figure is 0.0613.
